Read-outs that look alike come from different tables or passages of the source. At least one compound was matched to its structure with a doubt left.
What was measured:
dt^sz mutant hamster = type: in vivo, Syrian golden hamsters
Description: Animals The dt^sz mutant hamsters (Syrian golden hamsters), used in the present experiments, were obtained by selective breeding as described in detail elsewhere (Richter and Löscher, 1998). In this inbred line of mutant hamsters the motor disturbances are transmitted by a recessive gene. All animal groups consisted of male and female hamsters, because there was no indication of sex-related differences in the severity of dystonia or in the response to drugs (Richter and Löscher, 1998). The animals were born and kept under controlled environmental conditions (23-25° C., 50-60% humidity, 13 h light/11 h dark cycle) with free access to standard Altromin 7204 diet and water. In cases of oral administrations the food was deprived for 2 h prior to the experiments. All experiments were carried out in the morning (08.30-12.00 a.m.) at controlled temperatures (23-25° C.).
Induction of dystonic episodes and severity-score of dystonia. […] After this procedure, dt^sz hamsters develop a sequence of abnormal movements and postures. Dystonia is the predominant symptom in these animals. The severity of dystonia can be rated by following score-system (Richter and Löscher, 1998): stage 1, flat body posture; stage 2, facial contortions, rearing with forelimbs crossing, disturbed gait with hyperextended forepaws; stage 3, hyperextended hindlimbs so that the animals appear to walk on tiptoes; stage 4, twisting movements and loss of balance; stage 5, hindlimbs hyperextended caudally; stage 6, immobilisation in a twisted, hunched posture with hind- and forelimbs tonically extended forward. After reaching the individual maximum stage the hamsters recover within 2-5 hours. The individual maximum stage of dystonia is usually reached within 3 hours after the hamsters were placed into the new cage. Therefore, the animals have to be observed for 3 h after the induction of dystonic attacks to determine the individual maximum stage reached after administrations of drugs or of vehicle (for pre- and post-drug control recordings).
In the present study, all animals were examined for the presence of dystonia after weaning at the age of 21 days by the triple stimulation procedure, including injections of saline. […] All groups of mutant hamsters used for investigations were repeatedly tested by triple stimulations (injections of saline) every 2 to 3 days after weaning until the severity of dystonia and latencies to the different stages were reproducible. The drug experiments were done in 30-42 days old hamsters, i.e. at an age of the maximum severity of dystonia.
Drug experiments The effects of the Kv7.2/7.3 channel activators retigabine (5, 7.5 and 10 mg/kg i.p. and 10 and 20 mg/kg p.o.) and flupirtine (10 and 20 mg/kg i.p.) were examined in groups of 6-10 dt^s/z hamsters. The total number of animals used for the present experiments was 68. The compounds were freshly dissolved in saline prior the experiments. Dystonic attacks were induced by the procedure of triple stimulation, as described above, but instead of saline the active compound was injected (injection volume: 5 ml/kg i.p. or p.o.). Pre- and post-drug control trials with the vehicle (injection volume: 5 ml/kg saline i.p. or p.o.) were undertaken 2-3 days before and 2-3 days after drug testing in the same animals. […] During this period the severity of dystonia, the latencies to the different stages and the side effects were noted. The rater of the severity score (and of the latencies to stages) was unaware whether the animals were treated with vehicle or an active principle. A second person who had done the preparation of the solutions observed the animals for behavioural effects. The side effects were not quantified, but locomotor activity and ataxia were determined according to a score system, as previously described (Löscher and Richter, 1994). […]

[1] = system: L-DOPA induced dyskinesia in 6-OHDA lesioned rats; assay: chronic model of L-DOPA induced dyskinesia in unilaterally 6-OHDA lesioned rats (dyskinesia score); type: in vivo; settings: additional to levodopa
Description: Method: The model has been developed by Cenci, Lee and Bjorklund (L-DOPA-induced dyskinesia in the rat is associated with striatal overexpression of prodynorphin- and glutamic acid decarboxylase mRNA, Eur J. Neurosci. 1998; 10:2694-706) and was modified to show more severe dyskinesia. In brief, rats are first unilaterally lesioned in the medial forebrain bundle resulting in a near complete loss of the mesostriatal dopamine pathway. After a recovery, rats receive daily doses of both, L-DOPA and benserazide. Within less than 3 weeks, rats develop typical dyskinetic movements, both affecting their forearms and the oral regions. […] The dyskinesia can be quantified using an easy and reliable scoring system developed by Cenci et al.
Dopamine-denervating lesions were performed by unilateral injections of 8 μg 6-OHDA in the left medial forebrain bundle of female Sprague-Dawley rats. […] For rating, dyskinesia was classified into three subtypes (limb, axial and orolingual) and scored from 0 (=absent) to 4 (=permanent, not suppressible) over 200 minutes and every 30 minutes.
Results and Discussion: For drug testing, retigabine (2.5 and 5 mg/kg) was administered additional to levodopa and vehicle respectively. Effects of drug action in comparison to vehicle controls were detected by adding up the severity scores of each observation time. […]

Compound: CCOC(=O)Nc1ccc(NCc2ccc(F)cc2)cc1N [Retigabine, 2-amino-4-(4-fluorobenzylamino)-1-ethoxycarbonyl-aminobenzene]
- severity of dystonia (dt^sz mutant hamster; 5 mg/kg i.p.): failed to exert any significant effects on the severity of dystonia
- latency to onset of dystonia (dt^sz mutant hamster; 7.5 mg/kg i.p.): increased the latency to onset of dystonia
- severity of dystonia (dt^sz mutant hamster; 7.5 mg/kg i.p., significant decrease restricted to the second h): only tended to reduce the severity
- prevention of dystonia (dt^sz mutant hamster; 10 mg/kg i.p.): complete prevention was observed in one hamster
- progression of dystonia (dt^sz mutant hamster; 10 mg/kg i.p., first and second h after administration): significantly suppressed the progression of dystonia
- maximum severity of dystonia (dt^sz mutant hamster; 10 mg/kg i.p., third h after injection): significantly reduced the maximum severity
- severity of dystonia (dt^sz mutant hamster; 10 mg/kg oral): failed to exert antidystonic effects
- severity of dystonia (dt^sz mutant hamster; 20 mg/kg oral): significantly reduced the severity of dystonia
- latency to onset of dystonia (dt^sz mutant hamster; 5 and 10 mg/kg i.p.): merely tended to delay the onset of dystonic episodes
- latency to onset of dystonia (dt^sz mutant hamster; oral doses of 10 and 20 mg/kg): did not exert significant effects on the latency to onset of dystonia
- suppressing the symptoms of dystonia (summary statement) (dt^sz mutant hamster; summary for the two animal models of dystonia/dyskinesia, no dose given): found to exert beneficial effects
- severity of dyskinesia ([1]; 2.5 mg/kg i.p., 110th to 140th minute of observation (p<0.05)): reduced the severity of dyskinesia significantly
- severity of dyskinesia ([1]; 5 mg/kg i.p., 50, 80 (each p<0.05) and 110 (p<0.01) minutes after injection): reduced the severity of dyskinesia significantly

Source: patent publication US20090137641A1, “Potassium Channel Activators for the Prevention and Treatment of Dystonia and Dystonia-Like Symptoms” (priority 2006, published 2009)
